The other results are listed elsewhere or left out.

Protein sequences, listed by entry. Tags and fused reporters are not part of them.
UniProt Q0JBA9, entry or part of it: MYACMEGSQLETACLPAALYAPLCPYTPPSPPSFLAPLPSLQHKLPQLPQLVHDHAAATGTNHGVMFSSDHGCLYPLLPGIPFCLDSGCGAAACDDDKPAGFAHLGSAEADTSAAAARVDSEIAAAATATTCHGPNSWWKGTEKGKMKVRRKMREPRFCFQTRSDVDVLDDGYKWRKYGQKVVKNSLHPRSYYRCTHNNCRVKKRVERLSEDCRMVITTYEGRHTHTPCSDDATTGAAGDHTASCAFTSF

The experiment concerns the target OsWRKY34 (Oryza sativa, UniProt Q0JBA9 1-250). Nature of the experiment: protein-binding microarray (RPBM); PBS, 2% BSA, 51.3 ng/ul salmon testes DNA, 50 uM zinc acetate, 200 nM TF, 25 C, 1 h; high values mean tight binding. To be noted: protein: recombinant; tags: N-terminal polyhistidine and DsRed monomer fusion (pET32a); label: CyDye5-dUTP incorporated in the synthesized complementary strand; 3' TTTTT single-stranded linker to array surface; dsDNA, one strand shown. In outline:
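The binding signal is fluorescence intensity per array feature (arbitrary units). Readings came from an Axon 4000B scanner after a washed, 2% BSA-blocked, double-stranded custom Agilent array had been incubated for 1 h at 25 °C with 200 nM protein and 50 µM zinc acetate. The protein was a Ni–NTA-purified transcription factor fused N-terminally to polyhistidine and DsRed, expressed in E. coli BL21-CodonPlus.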
For the sequence “AGCACCTATAAATTCCATTCACCAGCTTCACTATGATTCACGGAGTCACCTAGTGCAG”, the binding signal was 8510 fluorescence intensity (a.u.). On to “AACCTCTCTATCCGCCAAAAACCCTACCCGCTCCACACGACGGAGTCACCTAGTGCAG”, for which the binding signal was 8940 fluorescence intensity (a.u.). “AGAGGTTCTGAACTCATCTTTGCTTGATTTGACCATCCTACGGAGTCACCTAGTGCAG”: the binding signal is 8590 fluorescence intensity (a.u.). As for “CATTGGGGAGGCTGACTGTAACACCGTGTATGCGTCGCATCGGAGTCACCTAGTGCAG”, the binding signal is 8240 fluorescence intensity (a.u.). For “GAGGTAGTGGTTTAGAGGAGGAGGCGGAGAAGAGGAGGGACGGAGTCACCTAGTGCAG”, the binding signal was 9020 fluorescence intensity (a.u.). Then “TTCGCCATTTCCAACCCGTCGTCTCGCCTTCGCCTCGCCTCGGAGTCACCTAGTGCAG”, with 9310 fluorescence intensity (a.u.). For “GAAACCAATTGTCATATGTGGGTCCCATCATCTGACCCTCCGGAGTCACCTAGTGCAG”, the binding signal is 8230 fluorescence intensity (a.u.). Take “ATATATTGTGTTGTTACGGAGCGAGTTTTCCCATTGACCTCGGAGTCACCTAGTGCAG”: the binding signal is 9970 fluorescence intensity (a.u.). In the case of “GTATGCGAGATGAATATTGTCCTGGTTCTTTTAACGCCGTCGGAGTCACCTAGTGCAG”, the binding signal is 9550 fluorescence intensity (a.u.). As to “GTGAAACCGGTCGGTCACCCATCCCTTGTCCTCAGGTCCCCGGAGTCACCTAGTGCAG”, the binding signal was 8570 fluorescence intensity (a.u.).

On to “CCACATTCGGCGTCGCACTCCTTCGTCTTCGCGTGATCCGCGGAGTCACCTAGTGCAG”, for which the binding signal was 11800 fluorescence intensity (a.u.). “ATGTGAACTCGTGTCTTTTTGCGGAAACTGTATGTTTAAACGGAGTCACCTAGTGCAG”: the binding signal is 8160 fluorescence intensity (a.u.).

For “CTCTCACTCTAATCATGCATTTAGACCGTTTCCATTTGCTCGGAGTCACCTAGTGCAG”, the binding signal is 12200 fluorescence intensity (a.u.). For the sequence “TTTGCATTTGTTTTTGATAATTTTGTTTCTGATTTCAGCTCGGAGTCACCTAGTGCAG”, the binding signal was 8520 fluorescence intensity (a.u.). Then “TCCTGCACTCACCTTCCATTCTTCTCCTGCTAAGCTCCAGCGGAGTCACCTAGTGCAG”, with 8610 fluorescence intensity (a.u.); and “GGGCGGAGCGGGGCGGAGGGAGAGGAGGGAGAGGAGGGAGCGGAGTCACCTAGTGCAG”, with 8480 fluorescence intensity (a.u.). Then “CCGCTCTCCCTTTGCCACCATCTCCGCTCCCGACACACACCGGAGTCACCTAGTGCAG”, with 8840 fluorescence intensity (a.u.); and “CCCGAACCCACCACCTCCGCCCATTTCCGCCTCCTCTCGACGGAGTCACCTAGTGCAG”, with 9190 fluorescence intensity (a.u.); and “CAACATGCATCCTAATGACAGCTACTGATCCTTCTAATCACGGAGTCACCTAGTGCAG”, with 8640 fluorescence intensity (a.u.). For the sequence “AGGCTTTATGTTTTTGTTAGGTCTGCACATCTGAAAGCTTCGGAGTCACCTAGTGCAG”, the binding signal is 8600 fluorescence intensity (a.u.). “GCCTGCTGTATATTTCTTTCTTATTGATGTCTCCATGAATCGGAGTCACCTAGTGCAG”: the binding signal was 9560 fluorescence intensity (a.u.).

Turning to “TTTTTCTTTACCCATTTTTTTTCGCTTTTTCCTTTTTTCTCGGAGTCACCTAGTGCAG”, the binding signal is 11800 fluorescence intensity (a.u.).

As for “AGTCTCAGTATAATTTGGTCGTGCTGTCGTGGTACAAATCCGGAGTCACCTAGTGCAG”, the binding signal was 8640 fluorescence intensity (a.u.). Then “GGGATTCGTGGGGATAATATGGGTTTATATGGAGTAAGGTCGGAGTCACCTAGTGCAG”, with 13800 fluorescence intensity (a.u.); and “TGGCTTCATTCCGCTTTTCCTACATGCACTGTTGACCTTGCGGAGTCACCTAGTGCAG”, with 10700 fluorescence intensity (a.u.); and “ATGTATTTCTTGCTTTATTCTCTCTTCGAACAGTGTTCTACGGAGTCACCTAGTGCAG”, with 8940 fluorescence intensity (a.u.). For the sequence “AGAGATCGGGGTTTGGTTTTTTGGAGGGGAGAGCGGAGTGCGGAGTCACCTAGTGCAG”, the binding signal was 10200 fluorescence intensity (a.u.). With “CACCGCAACAGTTTCACTAATCACCAGTCATTACACTCTGCGGAGTCACCTAGTGCAG”, the binding signal is 8690 fluorescence intensity (a.u.). As to “CTCCCACCACCGCGCTTGCCTCCGGCCCCGTGCCGCGCTGCGGAGTCACCTAGTGCAG”, the binding signal was 8770 fluorescence intensity (a.u.). Take “TGCCAAGCACACACACCATCTGCATCTTCTCTTCTACCATCGGAGTCACCTAGTGCAG”: the binding signal was 8160 fluorescence intensity (a.u.).

On to “AGTTCCTTCATCTGTCATCAAGCTTCAAACCGTTCCTAAACGGAGTCACCTAGTGCAG”, for which the binding signal is 10100 fluorescence intensity (a.u.). Then “CAGCTCCCACCGCGCACCATCATCGCCGCACCCTCGCTCTCGGAGTCACCTAGTGCAG”, with 9710 fluorescence intensity (a.u.); and “TGGGTGGGCATCAATCTAGACCCAGTCCACGTACGTGGGGCGGAGTCACCTAGTGCAG”, with 8600 fluorescence intensity (a.u.); and “ATTCCTTCGTTTTTCCTGTGGTCCAATCAAACGGCCATTCCGGAGTCACCTAGTGCAG”, with 10100 fluorescence intensity (a.u.). As for “GCTACTATCAAGTCATAAGCTTACTACCAAGTTATAGCACCGGAGTCACCTAGTGCAG”, the binding signal was 8320 fluorescence intensity (a.u.). Take “GCTCCATCTTACCTCCATTTTATTTCCAGGTTTCTTTACTCGGAGTCACCTAGTGCAG”: the binding signal was 12300 fluorescence intensity (a.u.). In the case of “GGGTTTTATTTATTCCGATAAATTTTCGTTACTGTATTCGCGGAGTCACCTAGTGCAG”, the binding signal is 9750 fluorescence intensity (a.u.). To “ATTTACATATTCCATCACAAAAAGTCGTATCTTGCGCCTACGGAGTCACCTAGTGCAG” belongs 8460 fluorescence intensity (a.u.); to “AGAAACACCATGTCCCCTTCAATATGCATACAGCAACTTACGGAGTCACCTAGTGCAG”, 9000 fluorescence intensity (a.u.).

“ACCTTTACTATAATAATACTGGACCCACATTTCATAGATACGGAGTCACCTAGTGCAG”: the binding signal is 8070 fluorescence intensity (a.u.). For the sequence “CTTGTTCCATGTTAGTTCGAGCGCACACACACAATCACACCGGAGTCACCTAGTGCAG”, the binding signal is 8350 fluorescence intensity (a.u.). Take “GAGCCATCCACACTCTCTCAGTGGCTTTCCTCGCGATCCGCGGAGTCACCTAGTGCAG”: the binding signal was 8870 fluorescence intensity (a.u.).

Values taken from PMC7819943, “Rice protein-binding microarrays: a tool to detect cis-acting elements near promoter regions in rice”.
